{"source": "the supplement of paper PMC5949888", "note": "Most values lie at the floor of the assay. Slopes are relative: functional sequences can read slightly below zero.", "data": [{"system": "Saccharomyces cerevisiae PS128 hsf1 delta, HSF1(1-493) fusion", "assay": "growth estimate (transactivation domain function in HSF1 fusion, heat-shock survival) (a.u. (slope of normalised read count over time)); higher = stronger growth at 37°C, i.e. more transactivation activity", "conditions": "library: random library", "experimental": "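Random 60-nt DNA library encoding peptides of up to 20 aa, fused to the C-terminus of yeast HSF1 residues 1-493 (C-terminal TAD deleted) and expressed from the native HSF1 promoter on a CEN plasmid in hsf1-deleted S. cerevisiae PS128. Cells were selected at 37°C on -trp 5-FOA plates for 0, 2, 4, 6 and 8 days and amplicons were sequenced. Growth estimate is the slope of a robust linear fit of total-sum-normalised read counts (normalised to the first time point) over time, using at least 2 replicates. Sequences are classed functional (TAD activity) above a threshold of -0.13, set from stop-codon control sequences.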", "values": [{"substance": "HPRGRCWALQIRQDAGAQCA", "growth estimate": "< -0.25"}, {"substance": "HPRGRSGSGRLVRNVTSIVG", "growth estimate": "< -0.25"}, {"substance": "HPRLIFDLYRRGIDENLIGE", "growth estimate": "< -0.25"}, {"substance": "HPSVRGFQGHIRTGSPSPVQ", "growth estimate": "< -0.25"}, {"substance": "HPTC", "growth estimate": "< -0.25"}, {"substance": "HPTIVSWHVRAPLSPSVAPV", "growth estimate": "< -0.25"}, {"substance": "HPVIIPGHSIRRLDG", "growth estimate": "< -0.25"}, {"substance": "HPVVG", "growth estimate": "< -0.25"}, {"substance": "HPWLWRGFE", "growth estimate": "< -0.25"}, {"substance": "HPYAGVAGM", "growth estimate": "< -0.25"}, {"substance": "HQAGWLITDFVNLCPRVDYG", "growth estimate": "< -0.25"}, {"substance": "HQALRTVVTQA", "growth estimate": "< -0.25"}, {"substance": "HQEHRCRVPVTVQEVDIRKF", "growth estimate": 0.0382}, {"substance": "HQILGRLIRSYALFGRAVVT", "growth estimate": "< -0.25"}, {"substance": "HQLYLSHEKRTRIKGTVQHG", "growth estimate": "< -0.25"}, {"substance": "HQMGSYAVSRSPGGSQTYLC", "growth estimate": -0.235}, {"substance": "HQMH", "growth estimate": "< -0.25"}, {"substance": "HQNVVGMGSPPHSAFVRQIS", "growth estimate": "< -0.25"}, {"substance": "HQRRWELLGEK", "growth estimate": "< -0.25"}, {"substance": "HQSFDFFPGA", "growth estimate": "< -0.25"}, {"substance": "HQTQSESYALLSLRRHALPR", "growth estimate": "< -0.25"}, {"substance": "HQTSMPHPHCLGCVGVLVSH", "growth estimate": "< -0.25"}, {"substance": "HRAALG", "growth estimate": "< -0.25"}, {"substance": "HRALSKMRSEGYKK", "growth estimate": "< -0.25"}, {"substance": "HRANAMFWP", "growth estimate": "< -0.25"}, {"substance": "HRCFSP", "growth estimate": "< -0.25"}, {"substance": "HRCYSKLSRFAVSNT", "growth estimate": "< -0.25"}, {"substance": "HRDASLPTGAVPSDKVCAWP", "growth estimate": "< -0.25"}, {"substance": "HRDPSKLAGLLVCGAYECVR", "growth estimate": "< -0.25"}, {"substance": "HREGTWFYLTLIRSKY", "growth estimate": "< -0.25"}, {"substance": "HRESRLHRG", "growth estimate": "< -0.25"}, {"substance": "HRGMSALRT", "growth estimate": "< -0.25"}, {"substance": "HRHGLCAHKPSTAF", "growth estimate": "< -0.25"}, {"substance": "HRIEDTSVGAQVPYIEGCRP", "growth estimate": "< -0.25"}, {"substance": "HRINPCPVQPKKHPRDVPRG", "growth estimate": "< -0.25"}, {"substance": "HRLDYLSKQMRRVRLRSPL", "growth estimate": "< -0.25"}, {"substance": "HRLVQVTVLLYYDYTRRLDW", "growth estimate": "< -0.25"}, {"substance": "HRMYALP", "growth estimate": "< -0.25"}, {"substance": "HRPPRPQRALIKT", "growth estimate": "< -0.25"}, {"substance": "HRPQYNGRKFREGHRWTYRR", "growth estimate": "< -0.25"}, {"substance": "HRQNSRTPRSVSTVMSNMLL", "growth estimate": "< -0.25"}, {"substance": "HRRQAPLHASNLH", "growth estimate": "< -0.25"}, {"substance": "HRSGRVF", "growth estimate": "< -0.25"}, {"substance": "HRSNAYQHCRSGRPGRAVKD", "growth estimate": "< -0.25"}, {"substance": "HRSTAKDMRVPGGFSECSYT", "growth estimate": "< -0.25"}, {"substance": "HRVFIQTS", "growth estimate": "< -0.25"}, {"substance": "HRWQS", "growth estimate": "< -0.25"}, {"substance": "HRYICGIQGIL", "growth estimate": "< -0.25"}, {"substance": "HSCGSRSAIGPRSSGRASPE", "growth estimate": "< -0.25"}, {"substance": "HSCQRLKCKHSQG", "growth estimate": "< -0.25"}, {"substance": "HSCTLKFAMRIGPHLVCESH", "growth estimate": "< -0.25"}, {"substance": "HSEDSVTR", "growth estimate": "< -0.25"}, {"substance": "HSETLRISSRVRCLARGPEG", "growth estimate": "< -0.25"}, {"substance": "HSGCSDR", "growth estimate": "< -0.25"}, {"substance": "HSI", "growth estimate": "< -0.25"}, {"substance": "HSIDFELCYGLHPVHERCYT", "growth estimate": "< -0.25"}, {"substance": "HSIRSILSDVKMVTPSGDRG", "growth estimate": "< -0.25"}, {"substance": "HSLLISLQ", "growth estimate": "< -0.25"}, {"substance": "HSLRA", "growth estimate": "< -0.25"}, {"substance": "HSMFSSLVKRNSRHPPIVVS", "growth estimate": "< -0.25"}, {"substance": "HSQRNGNPGAV", "growth estimate": "< -0.25"}, {"substance": "HSRAPFAVAGSDLSKNPLLA", "growth estimate": "< -0.25"}, {"substance": "HSRDTCIIALFTNAGDAHKQ", "growth estimate": -0.196}, {"substance": "HSRKGRDLVGA", "growth estimate": "< -0.25"}, {"substance": "HSSIKVDPTSPAGT", "growth estimate": -0.145}, {"substance": "HSTCRAAV", "growth estimate": "< -0.25"}, {"substance": "HSTNQSDDQEKIVPCSARDW", "growth estimate": "< -0.253"}, {"substance": "HSVRLLHRFTIREAGMLWLA", "growth estimate": "< -0.25"}, {"substance": "HSVSAVCGSLLQYNAYVSLE", "growth estimate": "< -0.25"}, {"substance": "HSVSGFSSAVWTTPSHLLVT", "growth estimate": "< -0.25"}, {"substance": "HTCQAKIVT", "growth estimate": "< -0.25"}, {"substance": "HTDGRRKLRRSVSAHSVTYP", "growth estimate": "< -0.25"}, {"substance": "HTDGSTVFAKNTGQSTG", "growth estimate": "< -0.25"}, {"substance": "HTENAQHRTSHRHSVERENA", "growth estimate": "< -0.25"}, {"substance": "HTFTHLAQEGCLLLSHVVQI", "growth estimate": "< -0.25"}, {"substance": "HTLFALGKARTVF", "growth estimate": "< -0.25"}, {"substance": "HTP", "growth estimate": "< -0.25"}, {"substance": "HTQAHFRVPSCLRPTALGAV", "growth estimate": "< -0.25"}, {"substance": "HTQPSCELLDRRLGDATANP", "growth estimate": "< -0.25"}, {"substance": "HTRFSQLRDAP", "growth estimate": "< -0.25"}, {"substance": "HTS", "growth estimate": 3.64}, {"substance": "HTSQSEKLTQVI", "growth estimate": "< -0.25"}, {"substance": "HTTREK", "growth estimate": "< -0.25"}, {"substance": "HTVG", "growth estimate": "< -0.25"}, {"substance": "HTYKTSVILEMTVRQIFLAH", "growth estimate": "< -0.25"}, {"substance": "HVAEELRVIFGRR", "growth estimate": "< -0.25"}, {"substance": "HVDAWLIPRCA", "growth estimate": "< -0.25"}, {"substance": "HVDSFHYLGSLSGGAGILVL", "growth estimate": "< -0.25"}, {"substance": "HVFTAFR", "growth estimate": "< -0.25"}, {"substance": "HVGMWALSIGRWFLTSHL", "growth estimate": "< -0.25"}, {"substance": "HVL", "growth estimate": "< -0.25"}, {"substance": "HVLE", "growth estimate": "< -0.25"}, {"substance": "HVLLNDGEVQVIFERAFRVV", "growth estimate": "< -0.25"}, {"substance": "HVLVLCRPPVVSYGVVDLTV", "growth estimate": -0.235}, {"substance": "HVREALRAQRDNP", "growth estimate": "< -0.25"}, {"substance": "HVRFSLSEFHAHREN", "growth estimate": "< -0.25"}, {"substance": "HVYCAGI", "growth estimate": -0.245}, {"substance": "HVYESSICQTSTAHF", "growth estimate": "< -0.25"}, {"substance": "HVYVHGTIETLVFSMADGDR", "growth estimate": "< -0.25"}, {"substance": "HWEDVY", "growth estimate": "< -0.25"}, {"substance": "HWLGRCSMIRGR", "growth estimate": "< -0.25"}, {"substance": "HWNSTNISIITTIWGDNGCY", "growth estimate": "< -0.25"}, {"substance": "HWPVEPGF", "growth estimate": "< -0.25"}, {"substance": "HWPYARYSMGFL", "growth estimate": "< -0.25"}, {"substance": "HWWAVLDD", "growth estimate": "< -0.25"}, {"substance": "HWWLPRATRSFPRKRCAPLD", "growth estimate": "< -0.25"}, {"substance": "HYCRIVKASVVIARG", "growth estimate": "< -0.25"}, {"substance": "HYLIPIREFNHD", "growth estimate": "< -0.25"}, {"substance": "HYN", "growth estimate": "< -0.25"}, {"substance": "HYPVIKVFLWQGVCSRKC", "growth estimate": "< -0.25"}, {"substance": "HYSEIDGDWEPL", "growth estimate": "< -0.25"}, {"substance": "HYTTALFRTRI", "growth estimate": "< -0.25"}, {"substance": "IADHGSHVGGTKTSQIDAIN", "growth estimate": "< -0.25"}, {"substance": "IAETTKRWFSTESPPLR", "growth estimate": "< -0.25"}, {"substance": "IAFWTERRNLSNSVRGFIVG", "growth estimate": "< -0.25"}, {"substance": "IAGW", "growth estimate": "< -0.25"}, {"substance": "IAIRHYKLTIQGL", "growth estimate": -0.246}, {"substance": "IAKS", "growth estimate": "< -0.25"}, {"substance": "IALCQFHNGGTGLHGCTGLL", "growth estimate": "< -0.25"}, {"substance": "IALVTVDFYCHVFITI", "growth estimate": "< -0.25"}, {"substance": "IANDRQIGLSG", "growth estimate": "< -0.25"}, {"substance": "IANSGRSGSC", "growth estimate": "< -0.25"}, {"substance": "IAPLTLLGNAEPVCVHSLIP", "growth estimate": "< -0.25"}, {"substance": "IARIQILKL", "growth estimate": "< -0.25"}, {"substance": "IARRGRPRSHPTSLQYQGGR", "growth estimate": "< -0.25"}, {"substance": "IASENPGP", "growth estimate": "< -0.25"}, {"substance": "IASPVACYPRVSLK", "growth estimate": "< -0.25"}, {"substance": "IASRQAVFRPGVTGCATR", "growth estimate": "< -0.25"}, {"substance": "IATACRA", "growth estimate": "< -0.25"}, {"substance": "IATGVNLHLSAGTAVLVLLS", "growth estimate": "< -0.25"}, {"substance": "IATKTKFGACSATIGLESMR", "growth estimate": "< -0.25"}, {"substance": "IATPP", "growth estimate": "< -0.25"}, {"substance": "IATVPLRRTPECLFSDVTAL", "growth estimate": "< -0.25"}, {"substance": "IATVTFMG", "growth estimate": "< -0.25"}, {"substance": "IAVDPNVLGTDKSSSIATHS", "growth estimate": "< -0.25"}, {"substance": "IAVSKPS", "growth estimate": "< -0.25"}, {"substance": "IAYESPEQREKPYYGPRNDK", "growth estimate": "< -0.25"}, {"substance": "ICAGRIKALGRR", "growth estimate": "< -0.25"}, {"substance": "ICAMLGVRISYVLTQSDESP", "growth estimate": -0.243}, {"substance": "ICDV", "growth estimate": "< -0.25"}, {"substance": "ICEICTFVNIIVSIMRGGGS", "growth estimate": "< -0.25"}, {"substance": "ICGQHIVGRILEADVALISW", "growth estimate": "< -0.25"}, {"substance": "ICGSSYK", "growth estimate": "< -0.25"}, {"substance": "ICLLAAPGVCELYTGAVYDG", "growth estimate": "< -0.25"}, {"substance": "ICLLFVGPSSIRNWLL", "growth estimate": "< -0.25"}, {"substance": "ICLPGVVTEETCDN", "growth estimate": "< -0.25"}, {"substance": "ICLRTGFARTGVV", "growth estimate": "< -0.25"}]}]}
